The supplement of paper PMC11732987, “Enantioselective OTUD7B fragment discovery through chemoproteomics screening and high-throughput optimisation” (Communications Chemistry, 2025)
The other results are listed elsewhere or left out. The data scatter; read single values as rough.

Sequences of proteins named here, by UniProt entry; tags and fusion partners are left off. A change or cut given only in a name is not applied to a line headed by its entry.
UniProt Q14573: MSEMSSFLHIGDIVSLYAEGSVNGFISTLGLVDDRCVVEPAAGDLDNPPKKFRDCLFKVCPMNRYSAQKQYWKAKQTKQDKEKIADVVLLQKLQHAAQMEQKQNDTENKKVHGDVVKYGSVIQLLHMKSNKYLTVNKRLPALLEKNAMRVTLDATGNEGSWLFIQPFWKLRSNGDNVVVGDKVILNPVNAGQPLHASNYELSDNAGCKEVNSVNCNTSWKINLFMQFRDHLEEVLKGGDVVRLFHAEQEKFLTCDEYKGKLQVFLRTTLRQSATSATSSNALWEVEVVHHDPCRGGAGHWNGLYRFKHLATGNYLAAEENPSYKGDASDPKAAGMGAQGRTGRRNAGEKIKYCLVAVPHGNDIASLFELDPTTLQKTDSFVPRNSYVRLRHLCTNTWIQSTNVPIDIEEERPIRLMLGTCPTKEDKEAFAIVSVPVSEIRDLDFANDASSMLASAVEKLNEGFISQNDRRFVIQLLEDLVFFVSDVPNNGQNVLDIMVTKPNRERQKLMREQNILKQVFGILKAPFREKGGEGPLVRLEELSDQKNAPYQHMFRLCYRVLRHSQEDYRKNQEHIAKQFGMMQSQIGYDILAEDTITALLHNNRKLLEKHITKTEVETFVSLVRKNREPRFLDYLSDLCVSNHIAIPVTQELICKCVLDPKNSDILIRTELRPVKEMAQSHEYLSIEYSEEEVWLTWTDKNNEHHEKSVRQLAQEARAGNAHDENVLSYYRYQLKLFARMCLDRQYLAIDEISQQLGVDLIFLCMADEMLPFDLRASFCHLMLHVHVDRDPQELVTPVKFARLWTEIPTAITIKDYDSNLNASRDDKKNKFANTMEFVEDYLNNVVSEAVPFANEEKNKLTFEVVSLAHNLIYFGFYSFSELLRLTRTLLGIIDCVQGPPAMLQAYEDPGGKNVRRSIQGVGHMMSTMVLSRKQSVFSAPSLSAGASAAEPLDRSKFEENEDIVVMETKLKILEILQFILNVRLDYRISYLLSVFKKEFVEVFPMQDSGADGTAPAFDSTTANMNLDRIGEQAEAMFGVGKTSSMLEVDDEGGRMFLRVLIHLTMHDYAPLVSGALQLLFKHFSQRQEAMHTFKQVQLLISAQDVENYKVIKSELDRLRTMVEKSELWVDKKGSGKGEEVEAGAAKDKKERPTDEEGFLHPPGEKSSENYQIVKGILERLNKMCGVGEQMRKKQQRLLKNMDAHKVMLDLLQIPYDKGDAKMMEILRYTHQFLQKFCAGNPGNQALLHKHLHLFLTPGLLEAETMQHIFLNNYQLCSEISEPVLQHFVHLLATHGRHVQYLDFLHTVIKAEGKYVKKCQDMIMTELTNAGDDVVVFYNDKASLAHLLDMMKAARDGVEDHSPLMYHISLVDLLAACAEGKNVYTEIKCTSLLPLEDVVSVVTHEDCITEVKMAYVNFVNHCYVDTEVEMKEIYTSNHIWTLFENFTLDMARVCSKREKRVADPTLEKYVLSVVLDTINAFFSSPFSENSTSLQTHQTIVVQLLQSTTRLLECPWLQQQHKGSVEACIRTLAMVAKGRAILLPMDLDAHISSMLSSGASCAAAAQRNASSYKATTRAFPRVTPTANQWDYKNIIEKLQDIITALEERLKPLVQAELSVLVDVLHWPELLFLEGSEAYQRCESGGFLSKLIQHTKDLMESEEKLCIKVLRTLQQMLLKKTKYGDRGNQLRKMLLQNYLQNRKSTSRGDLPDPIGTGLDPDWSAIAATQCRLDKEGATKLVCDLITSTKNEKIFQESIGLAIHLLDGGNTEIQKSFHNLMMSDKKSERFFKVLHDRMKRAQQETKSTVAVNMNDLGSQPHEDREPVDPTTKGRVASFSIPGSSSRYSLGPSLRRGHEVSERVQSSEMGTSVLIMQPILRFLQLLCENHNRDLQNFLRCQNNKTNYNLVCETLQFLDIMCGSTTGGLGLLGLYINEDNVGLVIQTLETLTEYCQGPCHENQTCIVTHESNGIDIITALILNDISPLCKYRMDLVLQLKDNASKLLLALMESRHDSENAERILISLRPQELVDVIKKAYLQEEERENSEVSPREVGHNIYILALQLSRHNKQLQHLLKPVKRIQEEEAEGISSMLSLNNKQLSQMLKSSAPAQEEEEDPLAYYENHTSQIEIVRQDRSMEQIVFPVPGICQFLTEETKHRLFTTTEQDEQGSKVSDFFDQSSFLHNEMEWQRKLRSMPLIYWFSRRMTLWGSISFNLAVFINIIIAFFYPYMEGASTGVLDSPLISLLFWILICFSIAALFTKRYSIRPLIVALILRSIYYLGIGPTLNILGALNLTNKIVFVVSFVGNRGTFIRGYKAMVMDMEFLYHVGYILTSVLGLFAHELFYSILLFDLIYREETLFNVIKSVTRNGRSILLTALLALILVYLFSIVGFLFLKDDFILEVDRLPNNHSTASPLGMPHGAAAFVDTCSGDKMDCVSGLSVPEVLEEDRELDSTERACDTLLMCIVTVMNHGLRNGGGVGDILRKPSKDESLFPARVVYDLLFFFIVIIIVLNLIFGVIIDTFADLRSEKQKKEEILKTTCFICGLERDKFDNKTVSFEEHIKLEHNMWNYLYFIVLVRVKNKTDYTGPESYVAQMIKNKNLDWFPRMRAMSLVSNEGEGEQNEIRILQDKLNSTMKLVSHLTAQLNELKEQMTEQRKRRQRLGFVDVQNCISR

Target: T1, ITPR3 C1375 (UniProt Q14573)
T1 sequence (whole entry): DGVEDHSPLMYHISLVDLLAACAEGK
Test: log2 mean competition ratio of IA-DTB cysteine labelling (DMSO/compound) (log2 ratio); higher = stronger cysteine engagement by compound
Settings: 50 µM; treatment time: 4 h; cell line lysate: HEK293T
Method: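 IA-DTB competitive cysteine chemoproteomics in HEK293T RIPA lysate. Lysates were treated with compound 29 or 30 at 50 or 200 µM for 4 h, then IA-DTB (500 µM, 1 h), trypsin-digested, NeutrAvidin-enriched and analysed by diaPASEF. Competition ratio = intensity DMSO / intensity compound (n=4 treated, n=64 DMSO); binding: mean log2 CR ≥ 1 and p ≤ 0.05 plus QC filters. Target is the cysteine site.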

Structure (SMILES) | log2 mean competition ratio
O=C(CCl)N[C@H]1CCCc2ccccc21 | 0.507
O=C(CCl)N[C@@H]1CCCc2ccccc21 | -0.203

Same assay, conditions: 200 µM; treatment time: 4 h; cell line lysate: HEK293T

Structure (SMILES) | log2 mean competition ratio
O=C(CCl)N[C@H]1CCCc2ccccc21 | -0.0157
O=C(CCl)N[C@@H]1CCCc2ccccc21 | -0.0996
